Experimental findings from PubChem BioAssay AID330 (DTP/NCI, 2004) are described below.

The list does not hold the whole screen: it is rich in T/C values a quarter to a half above the control, in often repeated tests (any T/C) and in doses without a T/C. Further doses and runs are listed elsewhere. T/C: endpoint of the treated group in % of that of the vehicle group. Some entries give survivors of the animals treated and no T/C: the source holds a T/C of zero for them, seemingly a mark for toxic or unscored doses. Some doses without a T/C left all or most animals alive at the check, yet need not have been tolerated: survival well below the control is almost never listed, so the zero probably covers shortened survival too. Counts of survivors are from the toxicity check (mostly the fifth day) where no day follows; animals may have died later. Schedule codes are those of the source, read here as Q, the interval in days (D) or hours (H), X, the number of doses. Some entries were tested several times; the results are listed from low to high. Additions like (4×) stand for listed records that agree. Where survival is the endpoint, the PubChem record calls one and a half times the control and up active, and a quarter to a half above the control has no call in these data; cut-offs in other NCI protocols can differ.

This experiment has as its system P388 leukemia ip, CD2F1 mice, survival T/C. In words: NCI In Vivo Anticancer Drug Screen. Data for tumor model P388 Leukemia (intraperitoneal) in CD2F1 (CDF1) mice. The settings on record: T/C endpoint: median survival time, higher T/C = longer survival.
The mark [1] stands for this setting: dose: 120.0 mg/kg/injection, schedule: Q01DX005 (ip), vehicle: Klucel (hydroxypropylcellulose) (HPC).
Setting [2] is: dose: 200.0 mg/kg/injection, schedule: Q01DX005 (ip), vehicle: saline with Tween-80.
The mark [3] stands for this setting: dose: 12.5 mg/kg/injection, schedule: Q01DX005 (ip), vehicle: saline with Tween-80.
Where [4] appears, read: dose: 240.0 mg/kg/injection, schedule: Q01DX005 (ip), vehicle: saline with Tween-80.

On to `CC1(C)OCC(C2OC(C)(C)OC2C2OC(O)C=CC2=O)O1` (stereo not drawn), for which the survivor count was 3 of 6, 4 of 6, 5 of 6, 6 of 6 (dose: 12.5 mg/kg/injection, schedule: Q01DX009 (ip), vehicle: distilled water + Tween-80); 0 of 6 (2×) (dose: 25.0 mg/kg/injection, schedule: Q01DX009 (ip), vehicle: distilled water + Tween-80); 0 of 6 (2×) (dose: 50.0 mg/kg/injection, schedule: Q01DX009 (ip), vehicle: distilled water + Tween-80); 0 of 6 (2×) (dose: 100.0 mg/kg/injection, schedule: Q01DX009 (ip), vehicle: distilled water + Tween-80); 0 of 6 (2×) (dose: 200.0 mg/kg/injection, schedule: Q01DX009 (ip), vehicle: distilled water + Tween-80).
In the case of `CSc1ncc(/C(C)=N\N=C(N)N)c(C)n1`, the T/C is, setting by setting: (dose: 60.0 mg/kg/injection, schedule: Q01DX005 (ip), vehicle: Klucel (hydroxypropylcellulose) (HPC)) 136 % of control; under setting [1], 128 % of control. Also, the survivor count (dose: 120.0 mg/kg/injection, schedule: Q01DX005 (ip), vehicle: saline) was 0 of 6 and the survivor count (dose: 240.0 mg/kg/injection, schedule: Q01DX005 (ip), vehicle: Klucel (hydroxypropylcellulose) (HPC)) is 0 of 6.
For `CN1CCC(O)(c2nccc3ccccc23)CC1`, under “dose: 200.0 mg/kg/injection, schedule: Q01DX001 (ip), vehicle: Klucel (hydroxypropylcellulose) (HPC)”, the survivor count was 0 of 6.
`O=C(O)c1cc(-c2ccc(Cl)cc2)nc2cc(Cl)ccc12`: the survivor count under setting [2] is listed as 0 of 6.
For the compound `NC(=O)C1OC(n2cnc3c(N)ncnc32)C(O)C1O` (stereo not drawn), the T/C under setting [3] is 127 % of control. Besides, the survivor count reads like this: under setting [3], 1 of 6 and 4 of 6; (dose: 25.0 mg/kg/injection, schedule: Q01DX005 (ip), vehicle: saline with Tween-80) 0 of 6; (dose: 50.0 mg/kg/injection, schedule: Q01DX005 (ip), vehicle: saline with Tween-80) 0 of 6; (dose: 100.0 mg/kg/injection, schedule: Q01DX005 (ip), vehicle: saline with Tween-80) 0 of 6; under setting [2], 0 of 6.
As for `NC1(c2ccccc2)CON=C(c2ccccc2)C1` (stereo not drawn), the survivor count is recorded as 0 of 6 (dose: 200.0 mg/kg/injection, schedule: Q04DX003 (ip), vehicle: saline) and 0 of 6 (dose: 400.0 mg/kg/injection, schedule: Q04DX003 (ip), vehicle: saline).
In the case of `CCOC(=O)c1ccc(NC(=O)Nc2ccc(NC(C)=O)cc2)cc1`, the survivor count (dose: 30.0 mg/kg/injection, schedule: Q01DX005 (ip), vehicle: Klucel (hydroxypropylcellulose) (HPC)) is 6 of 6 and the survivor count under setting [1] was 6 of 6.
Regarding `C[C@]12C=CC(=O)NC[C@@H]1CC[C@@H]1[C@@H]2CC[C@]2(C)[C@@H](OC(=O)COc3ccc(N(CCCl)CCCl)cc3)CC[C@@H]12`, under setting [4], the survivor count is on record as 6 of 6.
For `CCCCC(=O)NN(Cn1c(=S)sc2ccccc21)Cn1c(=S)sc2ccccc21`, the T/C (dose: 1.56 mg/kg/injection, schedule: Q01DX009 (ip), vehicle: Klucel (hydroxypropylcellulose) (HPC)) is 125 % of control. The survivor count (dose: 12.5 mg/kg/injection, schedule: Q01DX009 (ip), vehicle: Klucel (hydroxypropylcellulose) (HPC)) is 6 of 6; the survivor count (dose: 25.0 mg/kg/injection, schedule: Q01DX009 (ip), vehicle: Klucel (hydroxypropylcellulose) (HPC)) is reported as 6 of 6; the survivor count (dose: 100.0 mg/kg/injection, schedule: Q01DX009 (ip), vehicle: Klucel (hydroxypropylcellulose) (HPC)) is 6 of 6; the survivor count (dose: 200.0 mg/kg/injection, schedule: Q01DX009 (ip), vehicle: Klucel (hydroxypropylcellulose) (HPC)) is recorded as 1 of 6.
With `O=c1oc2ccc(Br)cc2cc1-n1nnc2ccccc21`, the survivor count runs as follows: (dose: 60.0 mg/kg/injection, schedule: Q01DX005 (ip), vehicle: saline with Tween-80) 6 of 6; under setting [4], 4 of 6.
Take `COc1cccc2c1C(=O)c1c(O)c3c(c(O)c1C2=O)C[C@@](O)(C(C)O)C[C@@H]3OC1CC(NCc2ccccc2)C(O)C(C)O1` (stereo partly drawn): for the setting “dose: 0.78 mg/kg/injection, schedule: Q01DX009 (ip), vehicle: water”, the T/C is 131 % of control. Further, the survivor count reads like this: (dose: 12.5 mg/kg/injection, schedule: Q01DX009 (ip), vehicle: water) 6 of 6; (dose: 25.0 mg/kg/injection, schedule: Q01DX009 (ip), vehicle: water) 6 of 6.
Consider `OCCSCc1cnc2ccccn12`, for which, for the setting “dose: 100.0 mg/kg/injection, schedule: Q01DX009 (ip), vehicle: saline”, the survivor count is given as 2 of 6.
